Target: T1, β2 adrenergic receptors (Canis lupus familiaris, UniProt P54833)
T1 construct: Canine lung membranes (10 μg protein/100 ul) were incubated with ^125ICYP; from tissue; host or cells: mongrel dog lung membranes
Test: Beta-2 binding, 125iodocyanopindolol (ICYP), canine lung membranes
Design: species or system canine (mongrel dogs)
Conditions: check for β1 sites

Sequences of proteins named here, by UniProt entry; tags and fusion partners are left off.
UniProt P54833, whole entry: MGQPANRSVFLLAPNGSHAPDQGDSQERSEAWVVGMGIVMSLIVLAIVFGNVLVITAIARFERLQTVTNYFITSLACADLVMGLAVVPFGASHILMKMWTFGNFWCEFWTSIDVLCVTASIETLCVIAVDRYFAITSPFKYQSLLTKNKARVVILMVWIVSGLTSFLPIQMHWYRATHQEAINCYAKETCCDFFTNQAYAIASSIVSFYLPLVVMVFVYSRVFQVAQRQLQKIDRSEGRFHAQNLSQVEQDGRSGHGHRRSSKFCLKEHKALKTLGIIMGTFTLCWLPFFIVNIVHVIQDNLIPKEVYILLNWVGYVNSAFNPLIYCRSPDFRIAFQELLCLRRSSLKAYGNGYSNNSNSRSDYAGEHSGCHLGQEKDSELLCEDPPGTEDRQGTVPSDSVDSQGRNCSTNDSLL

CC(C)NCC(O)COc1ccc(CC(N)=O)cc1 (stereo not shown) [Atenolol, atenolol]
displacement of ICYP from pulmonary membranes: largely ineffective in displacing ICYP

From patent US7232837B2, “Stereoisomers with high affinity for adrenergic receptors” (McNeil-PPC, Inc., priority 1999, dated 2007)
